## Library screen at single concentrations

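Growth of Mycobacterium tuberculosis over 4 days (cholesterol / DPPC medium with tyloxapol); the read-out is not stated. Tested at 50 µM. Direction is inferred from retests: higher values go with more growth inhibition. About 69,000 compounds were tested under these conditions; 0.54% (about 370) showed 50% or more at least once.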

Each number is a percent effect as filed. The controls that fix the scale are not given in the record; negative values are as filed. The compounds are a random part of those screened. Two or more numbers in one place are separate tests of the same structure; such repeats can differ widely.

compound,effect
COCCCNS(=O)(=O)c1cccc(CSC)c1,-7.06%
[H][C@@]12CCN(Cc3c(C)noc3C)C[C@@]1([H])[C@H](C(=O)N1CCCO1)CCO2,13.8%
COc1ccc(OCc2nc(C(=O)N3CC[C@H](O)[C@@H](O)C3)co2)cc1,17.54%
CCNC(=O)N1CC(c2nc(Cc3ccccc3)no2)C1,-3.115%
CC(C)Oc1cccc(C(=O)C2CCCN(C(=O)c3ccccn3)C2)c1 (stereo not given),24.1%
CCOCCCNS(=O)(=O)c1ccc2c(c1)NC(=O)C(C)O2 (stereo not given),11.75%
Cc1ccc(NC2CCN(C(=O)c3cccc4ncccc34)CC2)nn1,7.128%
Cc1ccn2c(=O)cc(CSCC(=O)Nc3nnc(C(C)C)s3)nc2c1,-34.32%
Cc1ccc(CNC(=O)NCc2nccn2C)c(OC(C)(C)C)c1,-5.166%
CCO[C@@H]1CCN(C(=O)c2ccnnc2)[C@@H]1Cc1cnn(C)c1,-24.02% & -22.64%
CCCn1ccnc1CNC(=O)C1COc2cc(OC)ccc2C1 (stereo not given),2.561%
Cc1ccc(-n2nnc(C(=O)NCC3(CO)CC3)c2C2CC2)cc1,-2.43%
CCN(Cc1cnn(CC)c1)C(=O)Cn1c(=O)c(C)nc2ccccc21,-1.198%
Cn1ccc(C(=O)N2CCCC(CNS(C)(=O)=O)C2)cc1=O (stereo not given),-12.03%
[H][C@@]12CS(=O)(=O)C[C@]1([H])N(C(=O)CCn1cc(Cl)cn1)CCN2C(=O)CC,10.66%
CN(C)CCN(C)C(=O)c1cn(CC2CCCCC2)nn1,-2.845%
COc1c(CNCc2ccccc2Cn2cccn2)c(C)nn1C,10.18%
[H][C@@]12C[C@@H](O)C[C@]1([H])CN(Cc1ccc(C(C)(C)C)cc1OCC(N)=O)C2,1.82% & 13.65%
O=C(CC1COCCN1)NCCc1nc(-c2ccccn2)no1 (stereo not given),-24.75%
CCc1cc(O)n2nc(C3CCN(C(=O)c4ccccn4)CC3)cc2n1,1.43% & -6.053%
O=C(Nc1ccc2c(c1)OCCO2)c1ccc(=O)[nH]n1,-9.767% & -1.69%
CN(Cc1nnc(C2CC2)o1)C1CCN(CCCc2cnn(C)c2)C1 (stereo not given),-19.99%
CCN1CCC(CC(=O)NCCc2nc(N)cc(O)n2)CC1,-8.431%
CCc1ncc2c(n1)CN(CC(=O)NCCOc1ccccc1)CC2,-7.811%
Cc1ccc(CNC(=O)Nc2nncs2)cn1,0.1264%
O=C(O)C(F)(F)F.O=C(O)C(F)(F)F.[H][C@]12CCC[C@@]1(COc1cccnc1)CN(C1CCOCC1)C2,0.4479%
Cc1cc(F)ccc1-c1cc(NCCO)nc2[nH]ccc12,-5.476%
O=C(c1coc(CN2CCN(c3ccccc3F)CC2)n1)N1CCCC1,8.326%
Cc1ccccc1CNC(=O)c1ccccc1-n1cnc(CN)c1,16.26%
FC1(F)CCN(Cc2ccncc2)CC12CCN(c1cnccn1)C2.O=C(O)C(F)(F)F.O=C(O)C(F)(F)F.O=C(O)C(F)(F)F (stereo not given),6.976%
COc1ccc(F)c(CN2CCCC3(CCN(S(C)(=O)=O)C3)C2)c1 (stereo not given),-10.88%
CCc1nc(C(=O)N(CC)CC(=O)Nc2cc(Cl)ccc2C)c[nH]1,-0.1654%
O=C1C(NS(=O)(=O)c2ccc(F)cc2)CCN1Cc1ccccc1 (stereo not given),-9.999%
[H][C@@]12OCCN(C(=O)c3ccc(C)nc3)[C@@]1([H])CC[C@H]2OCCN(C)C,15.83%
O=C(COCC(=O)N(c1ccccc1)c1ccccc1)N1CCCCC1,-18.12%
Cc1cnn(CCCNC(=O)NCCC(=O)Nc2ccccc2)c1,19.83%
O=C(O)C(F)(F)F.[H][C@@]12CN(Cc3ccncc3)CC[C@]1([H])CN(c1ccc(C)nn1)C2,-2.448%
CC[C@@H](C)[C@@H](N)C(=O)Nc1cccc(-c2cnc(N(C)C)nc2)c1,11.54%
[H][C@@]12CS(=O)(=O)C[C@]1([H])N(C(=O)CCc1ccccc1)CCN2C(=O)N(C)C,-14%
Cc1nc(COCC2CN(C(=O)N(C)C)Cc3nccn3C2)cs1.O=C(O)C(F)(F)F (stereo not given),-7.734%
COc1cccc2c1OCC(C(=O)NCc1ncc3c(n1)CCC3)C2 (stereo not given),7.223%
COc1ccc2c(c1)CCCN(C(=O)NCC1CCCO1)C2 (stereo not given),-2.242%
O=C(NC1CCC1)C1CCC2(CN(C(=O)c3ccno3)C2)O1 (stereo not given),0.3499%
COCCCN1CCN(c2ncnc3nc(C)cc(C)c23)CC1,-14.85%
NC(=O)CN1CCC(c2cccc(Oc3ccccc3)n2)CC1,5.854%
COc1ccc(CNC(=O)NC2CCN(c3ccccc3)C2=O)cc1 (stereo not given),-3.061%
O=C(CCNCc1cc(O)c2cc(F)ccc2n1)N1CCCC1,-12.29%

3 of the entries, repeated:

| compound | effect |
|---|---|
| `[H][C@@]12CS(=O)(=O)C[C@]1([H])N(C(=O)CCn1cc(Cl)cn1)CCN2C(=O)CC` | 10.66% |
| `Cc1cnn(CCCNC(=O)NCCC(=O)Nc2ccccc2)c1` | 19.83% |
| `COCCCN1CCN(c2ncnc3nc(C)cc(C)c23)CC1` | -14.85% |

From ChEMBL document CHEMBL3988442, “University of Dundee, Small-Polar-MMV Screening Library” (2021).